Our source for the cell number change and AC50 values is PubChem BioAssay AID2685 (National Center for Advancing Translational Sciences (NCATS), 2010).

Molecules are shown by their SMILES. The list shows a part of the results. Shown are side measurements of this screen, not its main read-out; they come without a call. Most of these compounds were active or inconclusive in the main read-out, so they are no random draw. Potencies come from curve fits of mixed quality, noted in brackets.

This test in a line: qHTS Assay for Lipid Storage Modulators in Drosophila S3 Cells.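 As to cell number change: cells counted by Cell Tracker Red CMTPX staining in the red channel.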 As to conditions: BODIPY lipid droplet fluorescence, 18-24 h; for cell number change: measured here: cell count max response, cells fed with added oleic acid. Put shortly: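 Drosophila S3 cells got compounds at several concentrations plus oleic acid (400 uM solution). Laser-scanning cytometry with 488 nm excitation read lipid droplets at 500-530 nm and cells at 575-640 nm. Percent activity was relative to 20 uM Triacsin C.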
A general note: qHTS replaces the single test concentration by a dilution series.

[1] abbreviates: measured here: lipid fluorescence (Fed channel) AC50, cells fed with added oleic acid.
Where [2] appears, read: measured here: cell number channel AC50, cells fed with added oleic acid.

Take `Cn1c(O)c(N=NC(=O)Cn2ccc(C(F)(F)F)n2)c2ccccc21`: the cell number change came to 10.2%. Moreover, the AC50 under setting [1] was 0.651 µM [rising, partial curve]. Regarding `O=[N+]([O-])c1cc(Cl)ccc1Sc1cccc2cccnc12`, the cell number change is -26.8%. The AC50 under setting [2] is 2.31 µM [rising, single point]. Turning to `O=C(c1ccncc1)N(Cc1ccco1)Cc1cc2ccccc2[nH]c1=O`, the cell number change was -12.8%. As to `Nc1nc(-c2ccccc2)nc2sc3c(c12)CCCC3`, the half-maximal activity concentration (AC50) under setting [1] was 2.91 µM [rising, single point]. For the compound `Cc1ccc(NC(=O)CN(C)CC(=O)Nc2ccc(N3CCOCC3)cc2)c([N+](=O)[O-])c1`, the cell number change was 42%. Moreover, under setting [2], the AC50 was 13 µM [rising, partial curve, poor fit]. For `COc1ccc(Cn2c(=O)n(Cc3ccco3)c(=N)c3c4c(sc32)COC(C)(C)C4)cc1`, the cell number change is -28.8%. Under setting [1], the AC50 is 0.092 µM [rising, single point]. `COc1cc2c(cc1OC)C(C(=O)Nc1ccc3c(c1)OCCO3)C(c1cccnc1)N(C)C2=O` (centres undefined): the cell number change is -20.1%. In addition, under setting [2], the AC50 was 2.91 µM [rising, single point]. As to `CCOc1ccc(C(=O)N(Cc2ccc(OC)cc2)Cc2cc3cc(OC)ccc3[nH]c2=O)cc1`, the cell number change was -23.7%. The AC50 under setting [2] was 1.3 µM [rising, partial curve]. For the same compound, under setting [1], the AC50 is 1.84 µM [rising, partial curve]. Consider `Cc1ccsc1C1C(C#N)=C(N)Oc2n[nH]c(C)c21` (centres undefined), for which the cell number change was -40.1%. Also, the AC50 under setting [2] was 0.326 µM [falling, full curve]. The AC50 under setting [1] is 29.1 µM [falling, single point]. Regarding `CS(=O)(=O)N(CC(=O)NCc1ccco1)c1ccc(Cl)c(C(F)(F)F)c1`, the cell number change was -30.5%. Further, the AC50 under setting [2] was 25.9 µM [falling, partial curve, poor fit]. In the case of `O=C(NC(N1CCOCC1)C(Cl)(Cl)Cl)c1ccc(F)cc1` (centres undefined), the cell number change amounted to 124%. For the same compound, under setting [2], the AC50 was 6.51 µM [falling, single point]. For the same compound, the AC50 under setting [1] is 2.06 µM [falling, partial curve]. In the case of `Cc1nc(-c2ccccc2O)n(S(=O)(=O)N(C)C)n1`, the cell number change is 39.4%. In addition, the concentration at half-maximal activity (AC50) under setting [2] was 29.1 µM [rising, single point]. The AC50 under setting [1] is 25.9 µM [rising, single point]. For the compound `O=C(Nc1nncs1)c1cc(S(=O)(=O)N2CCOCC2)ccc1Cl`, the AC50 under setting [1] was 6.31 µM [rising, single point]. Turning to `COc1ccccc1NC(=O)CSc1nc2sc(C)c(C)c2c(=O)n1Cc1ccco1`, the cell number change was -16.9%.

Regarding `CC(C)CCN1C(=O)c2ccc(C(=O)NCc3ccco3)cc2C1=O`, the cell number change is -2.76%. In the case of `COc1ccc2[nH]c(=O)c(CN(C(=O)c3ccncc3)C(C)(C)C)cc2c1`, the cell number change stood at 8.21%. The concentration at half-maximal activity (AC50) under setting [1] is 14.6 µM [rising, partial curve].

In the case of `CCn1c(SCC(N)=O)nc2c(c1=O)C1(CCCC1)Cc1ccccc1-2`, the cell number change turned out to be 3.83%. As for `COc1ccc(C(=O)N=c2sc3c(C)ccc(OC)c3n2C)cc1OC`, the cell number change amounted to 21.6%. The half-maximal activity concentration (AC50) under setting [1] was 0.651 µM [rising, partial curve]. In the case of `CCCN(C(=O)COC(=O)CCOc1ccccc1)c1c(N)n(Cc2ccccc2)c(=O)[nH]c1=O`, the AC50 under setting [1] was 29.1 µM [falling, single point].

On to `CCN(CC)C(=O)Cn1c(=O)n(C)c2ccccc21`, for which the cell number change was -14.2%. Also, the AC50 under setting [1] is 29.1 µM [falling, single point]. As for `CN(C)c1ccc(CNn2cnnc2SCc2ccc(F)cc2)cc1`, the cell number change was -9.12%. For `COc1ccc(C2CC(c3ccccc3Cl)Nc3ncnn32)cc1OC` (centres undefined), the cell number change is -29.5%. The AC50 under setting [1] was 10.3 µM [falling, partial curve, poor fit].

Consider `O=C(CN1CCN(C2CCS(=O)(=O)C2)CC1)N1N=C(c2ccc(Cl)cc2)CC1c1ccco1` (centres undefined), for which the cell number change was -8.86%. In addition, the AC50 under setting [1] was 23.1 µM [falling, single point].

Turning to `Cc1nc2cc(NCc3ccc(Cl)cc3)ccc2n1C`, the cell number change was -21.2%. Besides, under setting [1], the half-maximal activity concentration (AC50) is 29.1 µM [falling, single point]. As for `Cc1ccc(CN2CC(C(=O)N3CCN(c4ccccc4Cl)CC3)CC2=O)cc1` (centres undefined), the cell number change was -18.1%. As for `CCOC(=O)C1=C(CC)Nc2ccccc2N=C1NC(=O)c1cccc(S(=O)(=O)N2CCCC2)c1`, the cell number change was -0.37%. For the same compound, the AC50 under setting [1] was 16.4 µM [rising, single point]. Turning to `Cc1[nH]nc(NNC(=O)c2ccccc2)c1[N+](=O)[O-]`, the cell number change is -19.7%. Also, the concentration at half-maximal activity (AC50) under setting [2] was 1.03 µM [falling, full curve, poor fit].

Regarding `Cc1cc(C)c(S(=O)(=O)c2cccc(C)c2C)c(=O)[nH]1`, the cell number change is 18.5%. Also, the AC50 under setting [1] is 7.31 µM [rising, partial curve].

On to `CCOC(=O)N1CCN(C(=O)C(c2ccccc2)c2ccccc2)CC1`, for which the cell number change was found to be 5.9%. As to `C/C=C/c1ccc(OCCOc2cccc3cccnc23)c(OC)c1`, the cell number change was -58.8%. In addition, the AC50 under setting [2] was 29.1 µM [falling, single point]. The concentration at half-maximal activity (AC50) under setting [1] was 29.1 µM [falling, single point]. Regarding `CCC(C)(C)n1nnnc1C(c1cccs1)N1CCN(c2nc3ccccc3s2)CC1` (centres undefined), the cell number change was -2.83%. In addition, the AC50 under setting [1] was 5.17 µM [rising, partial curve, poor fit]. As for `O=C(NCCc1ccccc1)C1CCN(S(=O)(=O)N2CCCC2)CC1`, the cell number change was determined as 5.83%. Regarding `N#Cc1ccc(OCC(=O)N2CCN(c3ccc(C(F)(F)F)cn3)CC2)cc1`, the cell number change was -1.38%. The concentration at half-maximal activity (AC50) under setting [1] is 29.1 µM [rising, single point].

Consider `CCCCC(=O)NC(c1ccc(N(C)C)cc1)c1ccc2cccnc2c1O` (centres undefined), for which the cell number change was -64.9%. Also, the half-maximal activity concentration (AC50) under setting [2] was 16.4 µM [falling, single point]. For `O=C(O)COc1ccc2c(-c3ccccc3)cc(=O)oc2c1`, the cell number change was 1.07%. Besides, the AC50 under setting [1] is 29.1 µM [falling, single point]. For the compound `O=C(CN1C(=O)NC(c2ccccc2)(c2ccccc2)C1=O)N1CCN(c2ccc(F)cc2)CC1`, the cell number change was -7.26%. Moreover, the AC50 under setting [1] is 18.4 µM [rising, single point]. As for `O=C(Nc1ccc(-c2nnc3n2CCCCC3)cc1)c1cnccn1`, the cell number change is 1.82%. For the same compound, the concentration at half-maximal activity (AC50) under setting [1] was 0.00461 µM [falling, full curve, poor fit]. Take `CC(C)C(OC(=O)c1nsc(Cl)c1Cl)C(=O)NC1CCCCC1` (centres undefined): the cell number change was -19.8%. Regarding `Cc1ccc(C2NC(=O)c3c(sc4c3CCN(C)C4)N2)s1` (centres undefined), the cell number change was -1.65%. The AC50 under setting [1] was 5.8 µM [falling, single point]. Turning to `CC(=O)c1ccc(N2CCC(C)CC2)c(F)c1`, the cell number change was -30.4%. With `Cc1cccc(N2CCN(C(=O)CN3C(=O)NC(C)(C4CC4)C3=O)CC2)c1C` (centres undefined), the cell number change was found to be 2.03%. The AC50 under setting [1] is 29.1 µM [rising, single point].

The term AC50 denotes the concentration at which the activity in the assay is half-maximal.
